Experimental findings from publication PMC6286387, “Physical and thermodynamic characterization of the rice gibberellin receptor/gibberellin/DELLA protein complex” (Scientific Reports, 2018) are described below.

The test deals with T1, SLR1(M28-A112)ΔDELLA(E40-D56) (rice (Oryza sativa)) (UniProt Q7G7J6).
T1 sequence: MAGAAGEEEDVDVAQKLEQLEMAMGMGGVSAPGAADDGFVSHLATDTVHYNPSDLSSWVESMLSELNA
Description: ITC; 10 μl aliquants of 400 μM OsGID1/GA3 into 1.4482 ml of 50 μM SLR1 variant, 30 °C, 20 mM sodium phosphate (pH 7.5), 150 mM NaCl, 2.0 mM β-ME, 0.1 mM GA3; both purified. A general note: In ITC the heat of successive injections is recorded.

Results are given in words; binding and its absence hold for the method and conditions named.

B1: OsGID1 (rice gibberellin receptor GID1), Trx-free, used as the OsGID1/GA3 complex (receptor, rice (Oryza sativa), UniProt Q6L545 1-354, looked up)
chain: MAGSDEVNRNECKTVVPLHTWVLISNFKLSYNILRRADGTFERDLGEYLDRRVPANARPLEGVSSFDHIIDQSVGLEVRIYRAAAEGDAEEGAAAVTRPILEFLTDAPAAEPFPVIIFFHGGSFVHSSASSTIYDSLCRRFVKLSKGVVVSVNYRRAPEHRYPCAYDDGWTALKWVMSQPFMRSGGDAQARVFLSGDSSGGNIAHHVAVRAADEGVKVCGNILLNAMFGGTERTESERRLDGKYFVTLQDRDWYWKAYLPEDADRDHPACNPFGPNGRRLGGLPFAKSLIIVSGLDLTCDRQLAYADALREDGHHVKVVQCENATVGFYLLPNTVHYHEVMEEISDFLNANLYY
notes: Gibberellin receptor GID1 of rice (Oryza sativa); theoretical MW of the dimer printed as 79.2 kDa; The printed mass (39.6 kDa a monomer) fits the whole protein; source: recombinant, purified
For the molecule B1, the binding result is “no binding (tested: 50 μM SLR1 mutants and 400 μM OsGID1/GA3)”.
